Results deposited as PubChem BioAssay AID686943 (Drosophila RNAi Screening Center, 2013)
The deposit covers about 23,000 reagents; shown is a random part of those that have a named target and a result. 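Extra replicates exist only for a retested subset of genes; insulin dose and duration not given; both raised and lowered dpERK matter.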 Further read-outs or replicates are left out here. Not given: the amount of reagent, the time to read-out.

- Aim: 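Knockdowns that increase or decrease active ERK after insulin receptor stimulation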 (primary screen)
- System: Drosophila S2R+ haemocyte-like cells expressing YFP-tagged ERK (Rolled)
- Reagent: long dsRNA against Drosophila genes
- Treatment: insulin stimulation versus unstimulated cells; dose and duration not given
- Detection: 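Per-plate z-scores of phospho-ERK immunostaining normalised to YFP-tagged ERK, measured with and without insulin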
- Direction: replicate 1, z-score of dpERK with insulin: higher = more active ERK per ERK-YFP after insulin

CG9184 [DRSC08636]
- replicate 1, z-score of dpERK with insulin: 0.47

CG9184 [DRSC22184]
- replicate 1, z-score of dpERK with insulin: 0.04

jv [DRSC08831]
- replicate 1, z-score of dpERK with insulin: -0.5

jv [DRSC08832]
- replicate 1, z-score of dpERK with insulin: -0.31

Or98a [DRSC16774]
- replicate 1, z-score of dpERK with insulin: -0.04

CG3032 [DRSC18266]
- replicate 1, z-score of dpERK with insulin: -0.46

Gr98a [DRSC14719]
- replicate 1, z-score of dpERK with insulin: -0.59

CR31292 [DRSC13120]
- replicate 1, z-score of dpERK with insulin: 0.42

Poc1 [DRSC09713]
- replicate 1, z-score of dpERK with insulin: -0.1

eEFSec [DRSC04571]
- replicate 1, z-score of dpERK with insulin: -0.14

Reformatted: 2 of the entries above
gene,DRSC id,"replicate 1, z-score of dpERK with insulin"
CG9184,DRSC08636,0.47
CG9184,DRSC22184,0.04

The results go on:
sowi [DRSC12558]
- replicate 1, z-score of dpERK with insulin: -0.19

CngB [DRSC04297]
- replicate 1, z-score of dpERK with insulin: 0.74

Gabat [DRSC10846]
- replicate 1, z-score of dpERK with insulin: 0.2

Dok [DRSC18204]
- replicate 1, z-score of dpERK with insulin: -1.7

Oxp [DRSC06712]
- replicate 1, z-score of dpERK with insulin: -0.11

Cpr [DRSC03293]
- replicate 1, z-score of dpERK with insulin: -0.51

M1BP [DRSC16566]
- replicate 1, z-score of dpERK with insulin: -3.54

flap [DRSC03918]
- replicate 1, z-score of dpERK with insulin: 0.28

flap [DRSC04087]
- replicate 1, z-score of dpERK with insulin: 0.98

CG4884 [DRSC15671]
- replicate 1, z-score of dpERK with insulin: 0.36

Pten [DRSC03402]
- replicate 1, z-score of dpERK with insulin: -2.97
